The test deals with HA-STIM2.3 fused to YFPc (human) (UniProt Q9P246). Nature of the test: split reporter.

Chains of the proteins cited; added tags and fusions are not shown. Lines headed by an entry give the natural chain unless they say otherwise; changes in a name come on top. A line that says so, or that is headed by a name, gives the form on record, which may keep a tag or linker. Residues count along the entry.
HA-STIM2.3 fused to YFPc (Q9P246, form named): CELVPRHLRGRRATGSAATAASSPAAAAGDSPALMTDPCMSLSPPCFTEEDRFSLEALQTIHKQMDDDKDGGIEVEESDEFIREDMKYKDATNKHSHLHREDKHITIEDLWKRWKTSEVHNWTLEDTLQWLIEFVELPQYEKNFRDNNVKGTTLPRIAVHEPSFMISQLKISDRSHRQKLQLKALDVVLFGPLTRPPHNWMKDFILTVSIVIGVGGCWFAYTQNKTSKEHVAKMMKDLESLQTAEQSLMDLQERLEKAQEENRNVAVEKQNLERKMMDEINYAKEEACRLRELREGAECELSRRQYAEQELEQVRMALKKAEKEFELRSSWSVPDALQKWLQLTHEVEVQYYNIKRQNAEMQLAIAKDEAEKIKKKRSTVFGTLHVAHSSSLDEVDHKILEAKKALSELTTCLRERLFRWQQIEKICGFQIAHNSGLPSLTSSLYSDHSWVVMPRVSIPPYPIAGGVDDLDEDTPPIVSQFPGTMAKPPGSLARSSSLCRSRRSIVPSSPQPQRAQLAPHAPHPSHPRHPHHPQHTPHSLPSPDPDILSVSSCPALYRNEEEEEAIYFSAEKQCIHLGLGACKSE
UniProt Q96SN7: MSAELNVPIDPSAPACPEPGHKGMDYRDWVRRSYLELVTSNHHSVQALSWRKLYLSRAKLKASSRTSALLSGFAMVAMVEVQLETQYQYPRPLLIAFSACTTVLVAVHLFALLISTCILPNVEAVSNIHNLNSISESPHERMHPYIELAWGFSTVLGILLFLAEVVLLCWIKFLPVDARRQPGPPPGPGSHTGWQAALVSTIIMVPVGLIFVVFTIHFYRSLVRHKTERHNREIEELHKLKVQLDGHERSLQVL
UniProt Q13586, residues 23-685: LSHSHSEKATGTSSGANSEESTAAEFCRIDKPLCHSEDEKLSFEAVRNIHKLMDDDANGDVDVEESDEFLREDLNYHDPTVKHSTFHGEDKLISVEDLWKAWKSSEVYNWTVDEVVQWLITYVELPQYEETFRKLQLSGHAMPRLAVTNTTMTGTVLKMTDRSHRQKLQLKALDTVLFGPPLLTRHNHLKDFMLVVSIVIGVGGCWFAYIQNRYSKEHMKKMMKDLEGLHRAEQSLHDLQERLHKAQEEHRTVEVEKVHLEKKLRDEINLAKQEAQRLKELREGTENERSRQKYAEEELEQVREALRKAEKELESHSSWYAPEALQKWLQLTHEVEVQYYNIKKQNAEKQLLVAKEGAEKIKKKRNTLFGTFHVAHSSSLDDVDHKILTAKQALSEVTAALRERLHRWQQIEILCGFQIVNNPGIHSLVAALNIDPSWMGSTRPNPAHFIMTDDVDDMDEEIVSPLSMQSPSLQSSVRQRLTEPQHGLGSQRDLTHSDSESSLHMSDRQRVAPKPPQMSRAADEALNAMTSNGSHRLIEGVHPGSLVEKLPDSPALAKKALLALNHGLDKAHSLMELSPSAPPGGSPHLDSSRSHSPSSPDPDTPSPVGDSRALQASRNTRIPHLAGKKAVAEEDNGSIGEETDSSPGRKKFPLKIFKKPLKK

Results on two substances are retold here after article doi:10.1101/2023.01.27.525873.

No constants are given. Whether binding was seen depends on the method and setting. In cells and extracts the contact can be indirect. Some results given as binding are weak or reduced against the parent protein; the word gives no strength.

Regarding “ORAI2 fused to YFPn (from UniProt Q96SN7 1-254)”, the binding result is reported as “binds”.

In the case of “STIM1 fused to YFPn (from UniProt Q13586 23-685)”, the binding result is given as “binds”.
